Measurements: PubChem BioAssay AID248 (DTP/NCI, 2004)
The list does not hold the whole screen: it is rich in T/C values a quarter to a half above the control, in often repeated tests (any T/C) and in doses without a T/C. Further doses and runs are listed elsewhere. T/C gives the treated animals as a percentage of the vehicle group. Some entries give survivors of the animals treated and no T/C: the source holds a T/C of zero for them, seemingly a mark for toxic or unscored doses. Some survivor counts are full or nearly so, which does not show that the dose was tolerated: survival well below the control is almost never listed, so the zero probably covers shortened survival too. Survivors were counted at the toxicity check, usually on the fifth day, unless a day is given; later deaths do not show. Schedules are NCI's codes, taken here to give the interval after Q, in days (D) or hours (H), and the number of doses after X. For survival time, the PubChem record calls one and a half times the control and up active, and a quarter to a half above the control has no call in these data; cut-offs in other NCI protocols can differ.

Tested on: L1210 leukemia ip in BDF1 mice, survival T/C
Experiment: NCI In Vivo Anticancer Drug Screen. Data for tumor model L1210 Leukemia (intraperitoneal) in B6D2F1 (BDF1) mice
Conditions: T/C endpoint: mean survival time, higher T/C = longer survival
[1] = dose: 100.0 mg/kg/injection, schedule: Q01DX009 (ip), vehicle: saline with Tween-80
[2] = dose: 200.0 mg/kg/injection, schedule: Q01DX009 (ip), vehicle: saline with Tween-80
[3] = dose: 400.0 mg/kg/injection, schedule: Q01DX009 (ip), vehicle: saline with Tween-80
[4] = dose: 100.0 mg/kg/injection, schedule: Q04DX003 (ip), vehicle: saline with Tween-80
[5] = dose: 200.0 mg/kg/injection, schedule: Q04DX003 (ip), vehicle: saline with Tween-80
[6] = dose: 400.0 mg/kg/injection, schedule: Q04DX003 (ip), vehicle: saline with Tween-80
[7] = dose: 40.0 mg/kg/injection, schedule: Q01DX001 (ip), vehicle: saline
[8] = dose: 80.0 mg/kg/injection, schedule: Q01DX001 (ip), vehicle: saline

For `CCC12C=CCN3CCC4(C(=C(C(=O)OC)C1)Nc1cc(OC)ccc14)C32` (stereo not given), the survivor count (dose: 400.0 mg/kg/injection, schedule: Q04DX002 (ip), vehicle: saline) was 0 of 3.
`CCOc1ccc(N)c(O)c1` was tested, and the survivor count (dose: 150.0 mg/kg/injection, schedule: Q01DX001 (ip), vehicle: carboxymethylcellulose (CMC)) was 1 of 6 and the survivor count (dose: 300.0 mg/kg/injection, schedule: Q01DX001 (ip), vehicle: carboxymethylcellulose (CMC)) was 0 of 6.
`CCN(CC)CC(=O)NCC(CC)(CCN1CCOCC1)c1cccc2ccccc12` (stereo not given) was tested, and the survivor count (dose: 400.0 mg/kg/injection, schedule: Q04DX003 (ip), vehicle: saline) was 5 of 6.
For `O=C(O)c1cc(-c2ccc(-c3ccc(-c4cc(C(=O)O)c5cc(Cl)ccc5n4)cc3)cc2)nc2ccc(Cl)cc12`, the survivor count [1] was 6 of 6, the T/C [2] was 126 % of control and the T/C [3] was 130 % of control.
With `O=[N+]([O-])c1cccs1` the survivor count (dose: 200.0 mg/kg/injection, schedule: Q01DX009 (ip), vehicle: Klucel (hydroxypropylcellulose) (HPC)) was 6 of 6 and the survivor count (dose: 400.0 mg/kg/injection, schedule: Q04DX003 (ip), vehicle: other) was 0 of 6.
For `CC1(C)C2CC=C(C[P+](c3ccccc3)(c3ccccc3)c3ccccc3)C1C2` (stereo not given), the survivor count [4] was 0 of 6, the survivor count [5] was 0 of 6 and the survivor count [6] was 0 of 6.
For `COC(=O)CC1OCC=C2CN3CCC45C6=CC(=O)C(=O)C([N+](=O)[O-])=C6NC4C1C2CC35` (stereo not given), the survivor count (dose: 20.0 mg/kg/injection, schedule: Q01DX001 (ip), vehicle: saline) was 1 of 6, the survivor count [7] was 0 of 6 and the survivor count [8] was 0 of 6.
With `c1ccc(-c2oc3cc4c(cc3c2-c2ccc(OCCN3CCCC3)cc2)CCC4)cc1` the survivor count [5] was 6 of 6 and the survivor count [6] was 6 of 6.
`O=C(Nc1ccccc1C(=O)NC1CCCC1)NC1CCCC1` was tested, and the survivor count (dose: 400.0 mg/kg/injection, schedule: Q04DX003 (ip), vehicle: Klucel (hydroxypropylcellulose) (HPC)) was 6 of 6.
With `O=C1CC(c2ccc(Br)cc2)N(c2ccc([As](=O)(O)O)cc2)C1=O` (stereo not given) the survivor count [4] was 0 of 6, the survivor count [5] was 0 of 6 and the survivor count [6] was 0 of 6.
For `O=C(COC1CCCCC1)OC1CCCCC1`, the survivor count [5] was 6 of 6.
With `C[N+](C)(CCC#N)Cc1ccc(C[N+](C)(C)CCC#N)cc1` the survivor count [7] was 1 of 6, the survivor count (dose: 75.0 mg/kg/injection, schedule: Q01DX001 (ip), vehicle: saline) was 0 of 6 and the survivor count [8] was 0 of 6. For the same molecule, the survivor count (dose: 150.0 mg/kg/injection, schedule: Q01DX001 (ip), vehicle: saline) was 0 of 6 and the survivor count (dose: 300.0 mg/kg/injection, schedule: Q01DX001 (ip), vehicle: saline) was 0 of 6.
With `O=C(C[n+]1ccccc1)N/N=C/c1c(O)ccc2ccccc12` the survivor count [1] was 2 of 6, the survivor count [2] was 0 of 6 and the survivor count [3] was 0 of 6.
